These results are taken from the supplement of paper PMC10373366.

The list shows a part of the results. Most values come without repeats; read them as rough.

The test system of this test is patient-derived ovarian cancer cells (PDC). Briefly: cell growth inhibition ratio vs untreated control (CCK8); higher = stronger inhibition of cell viability. Particulars: 10 µM; 48 h. As for the experimental part: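 Natural product library (Topscience) screened at 10 µM final concentration for 48 h on ovarian cancer A2780 cells and patient-derived ovarian cancer cells (PDC) in 96-well plates; viability read by CCK8 and reported as inhibition ratio (%) relative to untreated control. Single-dose primary screen.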
Take `CC(C)=CCC/C(C)=C/CC/C(C)=C/CC/C(C)=C/CC/C(C)=C/CC/C(C)=C/CC/C(C)=C/CC/C(C)=C/CC/C(C)=C/CO` [Solanesol]: the “cell growth inhibition ratio” value worked out at 9.11%. As for `CC12CCC(CC1=O)C2(C)C` [D-Camphor], the figure is 2.19%. Consider `Cc1cc(O)c2c(c1)C(=O)c1cc(O)cc(O)c1C2=O` [Emodin], for which the “cell growth inhibition ratio” value is -13.9%. For `C=C1CC[C@@H]2[C@](C)(CO[C@@H]3O[C@H](CO)[C@@H](O)[C@H](O)[C@H]3O)CCC[C@@]2(C)[C@@H]1CCC1=CCOC1=O` [Neoandrographolide], the “cell growth inhibition ratio” value stood at 2.7%. For `c1ccc2c(Cc3c[nH]c4ccccc34)c[nH]c2c1` [3,3'-Diindolylmethane], the “cell growth inhibition ratio” value is 7.52%.

For the molecule `O=C1C[C@@H](c2ccc(O)cc2)Oc2cc(O)ccc21` [Liquiritigenin], the “cell growth inhibition ratio” value was -3.53%. As for `C/C1=C2N=C(/C=C3N=C(/C(C)=C4\[N-]C(C(CC(N)=O)C4(C)CCC(=O)NCC(C)OP(=O)([O-])OC4C(CO)OC(n5cnc6cc(C)c(C)cc65)C4O)C4(C)N=C1C(CCC(N)=O)C4(C)CC(N)=O)C(CCC(N)=O)C\3(C)C)C(CCC(N)=O)C/2(C)CC(N)=O.[CH3-].[Co+3]` (stereo not drawn) [Methylcobalamin], the figure is 11.6%; as for `CC1(C)OC(=O)C=C[C@]2(C)[C@H]3CC[C@@]4(C)[C@H](c5ccoc5)OC(=O)[C@H]5O[C@]54[C@]3(C)C(=O)C[C@@H]12` [Obacunone], 2.41%. Turning to `COc1ccc(-c2oc3c(CC=C(C)C)c(O)cc(O)c3c(=O)c2O)cc1` [Icaritin], the “cell growth inhibition ratio” value was -0.12%. In the case of `C[C@]12CCC(=O)C=C1CC[C@@H]1[C@@H]2C(=O)C[C@@]2(C)[C@H]1CC[C@]2(O)C(=O)CO` [Cortisone], the “cell growth inhibition ratio” value is -12.3%.

Consider `O=C(CCc1ccc(O)cc1)c1c(O)cc(O)cc1O[C@@H]1O[C@H](CO)[C@@H](O)[C@H](O)[C@H]1O` [Phlorizin], for which the “cell growth inhibition ratio” value is 7.37%. As for `CC1=C(C/C=C(\C)CCC[C@H](C)CCC[C@H](C)CCCC(C)C)C(=O)c2ccccc2C1=O` [Vitamin K1], the figure is -4.55%; as for `COC(=O)C=Cc1ccc(O)cc1` [Methyl 4-hydroxycinnamate], 13.7%. `C=C(C)[C@@H]1CC[C@]2(C(=O)O)CC[C@]3(C)[C@H](CC[C@@H]4[C@@]5(C)CC[C@H](O)C(C)(C)[C@@H]5CC[C@]43C)[C@@H]12` [Betulinic acid]: the “cell growth inhibition ratio” value was -1.74%. As for `C=C1C(=O)[C@]23[C@H](CC[C@@H]1[C@@H]2O)[C@]12CO[C@@]3(O)[C@H](O)[C@H]1C(C)(C)CC[C@@H]2O` [Rubescensin A], the figure is 26.5%; as for `NC(=O)CC[C@H](N)C(=O)O` [L-Glutamine], -13.2%; as for `C=C[C@H]1[C@H](O[C@@H]2O[C@H](CO)[C@@H](O)[C@H](O)[C@H]2O)OC=C2C(=O)OCC[C@]21O` [Swertiamarin], 4.67%. As for `O=c1cc(-c2ccccc2)oc2c(O)c(O)ccc12` [7,8-Dihydroxyflavone], the figure is 9.29%.

Consider `C/C=C/c1ccc(OC)cc1` [Trans-Anethole], for which the “cell growth inhibition ratio” value was -3.2%. As for `COc1c(C)c2c(c(O)c1C/C=C(\C)CCC(=O)O)C(=O)OC2` [Mycophenolic acid], the figure is 47.2%. As for `CC(C)=CCC[C@@](O)(CO[C@@H]1O[C@H](CO)[C@@H](O)[C@H](O)[C@H]1O)[C@H]1CC[C@]2(C)[C@@H]1CC[C@@H]1[C@@]3(C=O)CC[C@H](O[C@@H]4OC[C@H](O)[C@H](O[C@@H]5OC[C@@H](O)[C@H](O)[C@H]5O)[C@H]4O[C@@H]4O[C@@H](C)[C@H](O)[C@@H](O)[C@H]4O)C(C)(C)[C@@H]3CC[C@]12C` [Gypenoside XLIX], the figure is 14.9%. Regarding `Cc1cc(O)c2c(c1)C(=O)c1cccc(O)c1C2=O` [Chrysophanic Acid], the “cell growth inhibition ratio” value was 1.04%. As to `COc1c2ccoc2cc2oc(=O)ccc12` [Bergapten], the “cell growth inhibition ratio” value was -13.8%. As for `OC[C@H]1O[C@@H](Oc2ccc(O)cc2)[C@H](O)[C@@H](O)[C@@H]1O` [Arbutin], the figure is 13.9%; as for `CCC(=O)O[C@]1(C(=O)CO)CC[C@H]2[C@@H]3CCC4=CC(=O)CC[C@]4(C)[C@H]3CC[C@@]21C` [17 alpha-propionate], 0.961%. As for `Nc1ccn([C@@H]2O[C@H](CO)[C@@H](O)[C@H]2O)c(=O)n1` [Cytidine], the figure is 2.91%; as for `COC(=O)Nc1nc2cc(C(=O)c3cccs3)ccc2[nH]1` [Nocodazole], 45.9%; as for `CC(C)C(C)C(O)C(O)C(C)C1CCC2C3COC(=O)C4CC(O)C(O)CC4(C)C3CCC12C` (stereo not drawn) [Brassinolide], -14.7%.
